Reference: article PMC2676247
These are yes or no findings as the source states them, for the method shown. For part of these data: Binding seen in cells or lysates may run through a third protein. Some entries that bind do so weakly or less than the wild type.

Legend:
[1] = target: HTLV-1 Tax (expressed from pBC12-Tax) (HTLV-1) (UniProt P03409); assay: co-IP; Lysates of HEK293 cells transfected with pBC12-Tax (control pcDNA3); immunoprecipitated with anti-Tax (4C5) or anti-Sp1 antibody on rProtein G-agarose, 4°C; lysis buffer 20 mM Tris-Cl pH 7.5, 100 mM NaCl, 1 mM EDTA, 1.5 mM MgCl2, 0.5% Triton-X100; immunoblotted for Tax and Sp1
[2] = target: HTLV-1 Tax (in the HTLV-1-transformed T cell line MT4) (HTLV-1 (endogenous in MT4)) (UniProt P03409); assay: co-IP; Lysates of HTLV-1-transformed MT4 T cells (control Jurkat), 3 x 10^6 cells a sample; immunoprecipitated with anti-Tax or anti-Sp1 antibody as for HEK293; immunoblotted for Tax and Sp1
[3] = target: hexa-histidine-tagged Tax (TaxH6) (HTLV-1) (UniProt P03409); assay: pull-down; ~200 ng Sp1 with ~2 μg TaxH6 held on 30 μl Ni-NTA agarose beads; 20 mM Tris-Cl pH 7.5, 100 mM NaCl, 1 mM EDTA, 0.5% Triton-X100, 100 mM imidazole, 0.5 mg/ml BSA, 2 h at 4°C; Sp1 by immunoblot, Tax by Coomassie; both purified

Sp1 (endogenous, HEK293 cells) (from UniProt P08047 1-785)
binding [1]: binds

Sp1 (endogenous, MT4 cells) (from UniProt P08047 1-785)
binding [2]: binds

purified Sp1 (Promega) (from UniProt P08047 1-785)
binding [3]: binds
